Source: article PMC11647514
Results are given in words; binding and its absence hold for the method and conditions named. For part of these data: Binding seen in cells or lysates may run through a third protein. Some entries that bind do so weakly or less than the wild type. For part of these data: Tags and fused reporters may be left off the sequences shown. Each block holds one molecule with its values, some of them ahead of it.

Chains of the proteins cited; added tags and fusions are not shown.
UniProt P15927: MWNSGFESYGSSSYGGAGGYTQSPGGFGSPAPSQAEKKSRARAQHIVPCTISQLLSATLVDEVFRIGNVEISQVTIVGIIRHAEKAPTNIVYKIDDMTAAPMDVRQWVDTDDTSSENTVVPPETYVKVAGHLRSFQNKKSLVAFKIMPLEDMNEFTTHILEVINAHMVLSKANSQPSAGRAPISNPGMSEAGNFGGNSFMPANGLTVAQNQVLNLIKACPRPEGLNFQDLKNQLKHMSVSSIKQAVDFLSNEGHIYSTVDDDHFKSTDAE

Tests used:
[1] = molecular target: T1, O-GlcNAc transferase (OGT), endogenous (human (endogenous in 293T)) (UniProt O15294); test: co-IP; 293T cell lysates immunoprecipitated with anti-OGT antibodies, immunoblotted with anti-RPA2; endogenous proteins; with or without etoposide treatment (interaction reduced after etoposide)
T1 sequence: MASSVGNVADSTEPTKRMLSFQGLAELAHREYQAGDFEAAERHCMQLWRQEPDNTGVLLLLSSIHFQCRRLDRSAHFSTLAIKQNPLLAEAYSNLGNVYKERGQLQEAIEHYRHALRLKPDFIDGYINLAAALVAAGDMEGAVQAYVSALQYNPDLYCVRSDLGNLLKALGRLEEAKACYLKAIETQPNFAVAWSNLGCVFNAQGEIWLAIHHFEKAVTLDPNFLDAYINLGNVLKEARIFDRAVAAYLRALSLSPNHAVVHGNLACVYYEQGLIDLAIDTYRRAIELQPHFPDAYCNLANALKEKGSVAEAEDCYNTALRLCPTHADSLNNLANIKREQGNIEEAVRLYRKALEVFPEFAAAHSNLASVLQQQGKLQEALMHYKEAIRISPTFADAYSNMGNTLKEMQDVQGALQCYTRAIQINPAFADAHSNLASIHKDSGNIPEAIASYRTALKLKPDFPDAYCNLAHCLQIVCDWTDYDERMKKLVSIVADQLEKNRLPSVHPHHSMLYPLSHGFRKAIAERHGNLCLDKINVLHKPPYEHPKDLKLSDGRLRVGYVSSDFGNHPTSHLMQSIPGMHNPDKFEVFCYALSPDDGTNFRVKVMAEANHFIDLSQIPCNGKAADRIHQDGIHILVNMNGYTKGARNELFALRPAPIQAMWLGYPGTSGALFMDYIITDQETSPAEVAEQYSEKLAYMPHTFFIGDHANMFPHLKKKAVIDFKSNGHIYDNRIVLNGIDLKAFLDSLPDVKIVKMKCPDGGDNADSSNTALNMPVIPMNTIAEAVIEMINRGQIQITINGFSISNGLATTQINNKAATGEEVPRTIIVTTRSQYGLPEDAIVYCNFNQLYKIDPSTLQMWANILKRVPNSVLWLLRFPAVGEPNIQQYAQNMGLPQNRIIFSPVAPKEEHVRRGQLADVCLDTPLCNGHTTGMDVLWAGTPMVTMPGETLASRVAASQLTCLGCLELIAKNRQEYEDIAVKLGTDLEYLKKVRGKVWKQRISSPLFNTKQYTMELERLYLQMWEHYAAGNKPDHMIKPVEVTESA

[2] = molecular target: MBP-RPA2 (UniProt P15927); test: pull-down; recombinant MBP-RPA2 and GST-OGT proteins incubated and subject to pulldown; MBP-RPA2 as bait; both purified
[3] = molecular target: Flag-RPA2 (UniProt P15927); test: co-IP; 293T cells co-transfected with HA-OGT and Flag-RPA2; lysates immunoprecipitated with anti-Flag antibody and immunoblotted; with or without etoposide treatment (interaction diminished by etoposide)

- binding [1]: binds
Molecule: Replication Protein A2 (RPA2), endogenous (from UniProt P15927 1-270)

- binding [2]: binds
B1: GST-OGT (enzyme, UniProt O15294 1-1046)
chain: MASSVGNVADSTEPTKRMLSFQGLAELAHREYQAGDFEAAERHCMQLWRQEPDNTGVLLLLSSIHFQCRRLDRSAHFSTLAIKQNPLLAEAYSNLGNVYKERGQLQEAIEHYRHALRLKPDFIDGYINLAAALVAAGDMEGAVQAYVSALQYNPDLYCVRSDLGNLLKALGRLEEAKACYLKAIETQPNFAVAWSNLGCVFNAQGEIWLAIHHFEKAVTLDPNFLDAYINLGNVLKEARIFDRAVAAYLRALSLSPNHAVVHGNLACVYYEQGLIDLAIDTYRRAIELQPHFPDAYCNLANALKEKGSVAEAEDCYNTALRLCPTHADSLNNLANIKREQGNIEEAVRLYRKALEVFPEFAAAHSNLASVLQQQGKLQEALMHYKEAIRISPTFADAYSNMGNTLKEMQDVQGALQCYTRAIQINPAFADAHSNLASIHKDSGNIPEAIASYRTALKLKPDFPDAYCNLAHCLQIVCDWTDYDERMKKLVSIVADQLEKNRLPSVHPHHSMLYPLSHGFRKAIAERHGNLCLDKINVLHKPPYEHPKDLKLSDGRLRVGYVSSDFGNHPTSHLMQSIPGMHNPDKFEVFCYALSPDDGTNFRVKVMAEANHFIDLSQIPCNGKAADRIHQDGIHILVNMNGYTKGARNELFALRPAPIQAMWLGYPGTSGALFMDYIITDQETSPAEVAEQYSEKLAYMPHTFFIGDHANMFPHLKKKAVIDFKSNGHIYDNRIVLNGIDLKAFLDSLPDVKIVKMKCPDGGDNADSSNTALNMPVIPMNTIAEAVIEMINRGQIQITINGFSISNGLATTQINNKAATGEEVPRTIIVTTRSQYGLPEDAIVYCNFNQLYKIDPSTLQMWANILKRVPNSVLWLLRFPAVGEPNIQQYAQNMGLPQNRIIFSPVAPKEEHVRRGQLADVCLDTPLCNGHTTGMDVLWAGTPMVTMPGETLASRVAASQLTCLGCLELIAKNRQEYEDIAVKLGTDLEYLKKVRGKVWKQRISSPLFNTKQYTMELERLYLQMWEHYAAGNKPDHMIKPVEVTESA

- binding [3]: binds
B2: HA-OGT (enzyme, UniProt O15294 1-1046)
chain: MASSVGNVADSTEPTKRMLSFQGLAELAHREYQAGDFEAAERHCMQLWRQEPDNTGVLLLLSSIHFQCRRLDRSAHFSTLAIKQNPLLAEAYSNLGNVYKERGQLQEAIEHYRHALRLKPDFIDGYINLAAALVAAGDMEGAVQAYVSALQYNPDLYCVRSDLGNLLKALGRLEEAKACYLKAIETQPNFAVAWSNLGCVFNAQGEIWLAIHHFEKAVTLDPNFLDAYINLGNVLKEARIFDRAVAAYLRALSLSPNHAVVHGNLACVYYEQGLIDLAIDTYRRAIELQPHFPDAYCNLANALKEKGSVAEAEDCYNTALRLCPTHADSLNNLANIKREQGNIEEAVRLYRKALEVFPEFAAAHSNLASVLQQQGKLQEALMHYKEAIRISPTFADAYSNMGNTLKEMQDVQGALQCYTRAIQINPAFADAHSNLASIHKDSGNIPEAIASYRTALKLKPDFPDAYCNLAHCLQIVCDWTDYDERMKKLVSIVADQLEKNRLPSVHPHHSMLYPLSHGFRKAIAERHGNLCLDKINVLHKPPYEHPKDLKLSDGRLRVGYVSSDFGNHPTSHLMQSIPGMHNPDKFEVFCYALSPDDGTNFRVKVMAEANHFIDLSQIPCNGKAADRIHQDGIHILVNMNGYTKGARNELFALRPAPIQAMWLGYPGTSGALFMDYIITDQETSPAEVAEQYSEKLAYMPHTFFIGDHANMFPHLKKKAVIDFKSNGHIYDNRIVLNGIDLKAFLDSLPDVKIVKMKCPDGGDNADSSNTALNMPVIPMNTIAEAVIEMINRGQIQITINGFSISNGLATTQINNKAATGEEVPRTIIVTTRSQYGLPEDAIVYCNFNQLYKIDPSTLQMWANILKRVPNSVLWLLRFPAVGEPNIQQYAQNMGLPQNRIIFSPVAPKEEHVRRGQLADVCLDTPLCNGHTTGMDVLWAGTPMVTMPGETLASRVAASQLTCLGCLELIAKNRQEYEDIAVKLGTDLEYLKKVRGKVWKQRISSPLFNTKQYTMELERLYLQMWEHYAAGNKPDHMIKPVEVTESA
